This is one part of the list.
Tests used:
Assay in all cases: glycan array binding signal (z-score within array); higher = stronger binding
Conditions in all cases: glycan notation: IUPAC condensed, linker removed
[1] = biological target: Fuc(a1-3)[Gal3S(b1-4)]GlcNAc6S
Method in brief: (§1)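 The Consortium for Functional Glycomics database supplied 3228 glycan arrays, of which those lacking an available protein sequence were dropped. The binding signal, a within-array Z-score, was averaged across arrays of the same protein sequence and across linkers. Negative scores can be read as non-binding.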

[2] = biological target: Fuc(a1-3)[GalNAc(b1-4)]GlcNAc
Method in brief: as §1

[3] = biological target: Fuc(a1-3)[GalNAc(b1-4)]GlcNAc6S
Method in brief: as §1

Fuc(a1-4)GlcNAc = biological target: Fuc(a1-4)GlcNAc
Method in brief: as §1

Fuc(b1-3)GlcNAc = biological target: Fuc(b1-3)GlcNAc
Method in brief: as §1

Gal(a1-2)Gal = biological target: Gal(a1-2)Gal
Method in brief: as §1

Gal(a1-3)Gal = biological target: Gal(a1-3)Gal
Method in brief: as §1

Gal(a1-3)Gal(b1-3)GlcNAc = biological target: Gal(a1-3)Gal(b1-3)GlcNAc
Method in brief: as §1

[4] = biological target: Gal(a1-3)Gal(b1-3)GlcNAc(b1-2)Man
Method in brief: as §1

[5] = biological target: Gal(a1-3)Gal(b1-3)GlcNAc(b1-2)Man(a1-3)[Gal(a1-3)Gal(b1-3)GlcNAc(b1-2)Man(a1-6)]Man(b1-4)GlcNAc(b1-4)GlcNAc
Method in brief: as §1

[6] = biological target: Gal(a1-3)Gal(b1-3)GlcNAc(b1-3)GalNAc
Method in brief: as §1

[7] = biological target: Gal(a1-3)Gal(b1-3)GlcNAc(b1-6)GalNAc
Method in brief: as §1

[8] = biological target: Gal(a1-3)Gal(b1-3)[Fuc(a1-4)]GlcNAc(b1-2)Man(a1-3)[Gal(a1-3)Gal(b1-3)[Fuc(a1-4)]GlcNAc(b1-2)Man(a1-6)]Man(b1-4)GlcNAc(b1-4)GlcNAc
Method in brief: as §1

Gal(a1-3)Gal(b1-4)Glc = biological target: Gal(a1-3)Gal(b1-4)Glc
Method in brief: as §1

Gal(a1-3)Gal(b1-4)GlcNAc = biological target: Gal(a1-3)Gal(b1-4)GlcNAc
Method in brief: as §1

[9] = biological target: Gal(a1-3)Gal(b1-4)GlcNAc(b1-2)Man
Method in brief: as §1

[10] = biological target: Gal(a1-3)Gal(b1-4)GlcNAc(b1-2)Man(a1-3)[Gal(a1-3)Gal(b1-4)GlcNAc(b1-2)Man(a1-6)]Man(b1-4)GlcNAc(b1-4)GlcNAc
Method in brief: as §1

[11] = biological target: Gal(a1-3)Gal(b1-4)GlcNAc(b1-3)GalNAc
Method in brief: as §1

[12] = biological target: Gal(a1-3)Gal(b1-4)GlcNAc(b1-6)GalNAc
Method in brief: as §1

[13] = biological target: Gal(a1-3)Gal(b1-4)[Fuc(a1-3)]GlcNAc
Method in brief: as §1

[14] = biological target: Gal(a1-3)Gal(b1-4)[Fuc(a1-3)]GlcNAc(b1-2)Man(a1-3)[Gal(a1-3)Gal(b1-4)[Fuc(a1-3)]GlcNAc(b1-2)Man(a1-6)]Man(b1-4)GlcNAc(b1-4)GlcNAc
Method in brief: as §1

Gal(a1-3)GalNAc = biological target: Gal(a1-3)GalNAc
Method in brief: as §1

[15] = biological target: Gal(a1-3)[Gal(a1-4)]Gal(b1-4)GlcNAc
Method in brief: as §1

[16] = biological target: Gal(a1-4)Gal(b1-3)GlcNAc(b1-2)Man(a1-3)[Gal(a1-4)Gal(b1-3)GlcNAc(b1-2)Man(a1-6)]Man(b1-4)GlcNAc(b1-4)GlcNAc
Method in brief: as §1

Gal(a1-4)Gal(b1-4)Glc = biological target: Gal(a1-4)Gal(b1-4)Glc
Method in brief: as §1

Gal(a1-4)Gal(b1-4)GlcNAc = biological target: Gal(a1-4)Gal(b1-4)GlcNAc
Method in brief: as §1

[17] = biological target: Gal(a1-4)Gal(b1-4)GlcNAc(b1-2)Man(a1-3)[Gal(a1-4)Gal(b1-4)GlcNAc(b1-2)Man(a1-6)]Man(b1-4)GlcNAc(b1-4)GlcNAc
Method in brief: as §1

[18] = biological target: Gal(a1-4)Gal(b1-4)GlcNAc(b1-3)Gal(b1-4)Glc
Method in brief: as §1

Gal(a1-4)GlcNAc = biological target: Gal(a1-4)GlcNAc
Method in brief: as §1

Gal(a1-6)Glc = biological target: Gal(a1-6)Glc
Method in brief: as §1

Gal(b1-2)Gal = biological target: Gal(b1-2)Gal
Method in brief: as §1

Gal(b1-3)Gal = biological target: Gal(b1-3)Gal
Method in brief: as §1

Gal(b1-3)Gal(b1-4)GlcNAc = biological target: Gal(b1-3)Gal(b1-4)GlcNAc
Method in brief: as §1

Gal(b1-3)GalNAc = biological target: Gal(b1-3)GalNAc
Method in brief: as §1

[19] = biological target: Gal(b1-3)GalNAc(a1-3)[Fuc(a1-2)]Gal(b1-4)Glc
Method in brief: as §1

[20] = biological target: Gal(b1-3)GalNAc(a1-3)[Fuc(a1-2)]Gal(b1-4)GlcNAc
Method in brief: as §1

Gal(b1-3)GalNAc(b1-3)Gal = biological target: Gal(b1-3)GalNAc(b1-3)Gal
Method in brief: as §1

[21] = biological target: Gal(b1-3)GalNAc(b1-3)Gal(a1-4)Gal(b1-4)Glc
Method in brief: as §1

[22] = biological target: Gal(b1-3)GalNAc(b1-4)Gal(b1-4)Glc
Method in brief: as §1

[23] = biological target: Gal(b1-3)GalNAc(b1-4)[Neu5Ac(a2-3)]Gal(b1-4)Glc
Method in brief: as §1

Gal(b1-3)GlcNAc = biological target: Gal(b1-3)GlcNAc
Method in brief: as §1

[24] = biological target: Gal(b1-3)GlcNAc(a1-3)Gal(b1-4)GlcNAc
Method in brief: as §1

[25] = biological target: Gal(b1-3)GlcNAc(a1-6)Gal(b1-4)GlcNAc
Method in brief: as §1

Gal(b1-3)GlcNAc(b1-2)Man = biological target: Gal(b1-3)GlcNAc(b1-2)Man
Method in brief: as §1

[26] = biological target: Gal(b1-3)GlcNAc(b1-2)Man(a1-3)[Gal(b1-3)GlcNAc(b1-2)Man(a1-6)]Man(b1-4)GlcNAc(b1-4)GlcNAc
Method in brief: as §1

B1: Clec18A (Homo sapiens) (protein)
chain: PFHTCDLRIDGDCFMVSSEADTYYRARMKCQRKGGVLAQIKRQKVQDILAFYLGRLETTNEVIDSDFETRNFWIGLTYKTAKDSFRWATGEHQAFTSFAFGQPDNHGFGNCVELQASAAFNWNDQRCKTRNRYICQ
**Q.** How did the “glycan array binding signal (z-score)” value [1] turn out when B1 was run?
**A.** 0.231

**Q.** What about the “glycan array binding signal (z-score)” value [2] of the same binder?
**A.** 0.38

**Q.** What about the “glycan array binding signal (z-score)” value [3] of the same binder?
**A.** 1.94

**Q.** What about the “glycan array binding signal (z-score)” value (Fuc(a1-4)GlcNAc) of the same binder?
**A.** -0.682

**Q.** What about the “glycan array binding signal (z-score)” value (Fuc(b1-3)GlcNAc) of the same binder?
**A.** -0.657

**Q.** And the “glycan array binding signal (z-score)” value (Gal(a1-2)Gal)?
**A.** -0.514

**Q.** And the “glycan array binding signal (z-score)” value (Gal(a1-3)Gal)?
**A.** 0.795

**Q.** And the “glycan array binding signal (z-score)” value (Gal(a1-3)Gal(b1-3)GlcNAc)?
**A.** 2.38

**Q.** What about the “glycan array binding signal (z-score)” value [4] of the same binder?
**A.** 1.51

**Q.** What about the “glycan array binding signal (z-score)” value [5] of the same binder?
**A.** 0.649

**Q.** And the “glycan array binding signal (z-score)” value [6]?
**A.** -0.324

**Q.** And the “glycan array binding signal (z-score)” value [7]?
**A.** 0.272

**Q.** What about the “glycan array binding signal (z-score)” value [8] of the same binder?
**A.** 2.1

**Q.** What about the “glycan array binding signal (z-score)” value (Gal(a1-3)Gal(b1-4)Glc) of the same binder?
**A.** 0.259

**Q.** And the “glycan array binding signal (z-score)” value (Gal(a1-3)Gal(b1-4)GlcNAc)?
**A.** -0.505

**Q.** What about the “glycan array binding signal (z-score)” value [9] of the same binder?
**A.** -0.466

**Q.** And the “glycan array binding signal (z-score)” value [10]?
**A.** 0.582

**Q.** What about the “glycan array binding signal (z-score)” value [11] of the same binder?
**A.** 0.774

**Q.** What about the “glycan array binding signal (z-score)” value [12] of the same binder?
**A.** -0.483

**Q.** And the “glycan array binding signal (z-score)” value [13]?
**A.** 1.37

**Q.** What about the “glycan array binding signal (z-score)” value [14] of the same binder?
**A.** 0.838

**Q.** And the “glycan array binding signal (z-score)” value (Gal(a1-3)GalNAc)?
**A.** -0.489

**Q.** And the “glycan array binding signal (z-score)” value [15]?
**A.** 2.29

**Q.** What about the “glycan array binding signal (z-score)” value [16] of the same binder?
**A.** 1.19

**Q.** And the “glycan array binding signal (z-score)” value (Gal(a1-4)Gal(b1-4)Glc)?
**A.** 0.47

**Q.** What about the “glycan array binding signal (z-score)” value (Gal(a1-4)Gal(b1-4)GlcNAc) of the same binder?
**A.** -0.513

**Q.** What about the “glycan array binding signal (z-score)” value [17] of the same binder?
**A.** -0.294

**Q.** What about the “glycan array binding signal (z-score)” value [18] of the same binder?
**A.** 2.17

**Q.** What about the “glycan array binding signal (z-score)” value (Gal(a1-4)GlcNAc) of the same binder?
**A.** -0.546

**Q.** And the “glycan array binding signal (z-score)” value (Gal(a1-6)Glc)?
**A.** -0.659

**Q.** What about the “glycan array binding signal (z-score)” value (Gal(b1-2)Gal) of the same binder?
**A.** -0.826

**Q.** What about the “glycan array binding signal (z-score)” value (Gal(b1-3)Gal) of the same binder?
**A.** -0.801

**Q.** What about the “glycan array binding signal (z-score)” value (Gal(b1-3)Gal(b1-4)GlcNAc) of the same binder?
**A.** -0.255

**Q.** And the “glycan array binding signal (z-score)” value (Gal(b1-3)GalNAc)?
**A.** -0.497

**Q.** And the “glycan array binding signal (z-score)” value [19]?
**A.** -0.687

**Q.** And the “glycan array binding signal (z-score)” value [20]?
**A.** 0.394

**Q.** And the “glycan array binding signal (z-score)” value (Gal(b1-3)GalNAc(b1-3)Gal)?
**A.** -0.158

**Q.** What about the “glycan array binding signal (z-score)” value [21] of the same binder?
**A.** -0.059

**Q.** And the “glycan array binding signal (z-score)” value [22]?
**A.** 1.14

**Q.** What about the “glycan array binding signal (z-score)” value [23] of the same binder?
**A.** 0.583

**Q.** And the “glycan array binding signal (z-score)” value (Gal(b1-3)GlcNAc)?
**A.** -0.262

**Q.** What about the “glycan array binding signal (z-score)” value [24] of the same binder?
**A.** 1.46

**Q.** What about the “glycan array binding signal (z-score)” value [25] of the same binder?
**A.** 1.4

**Q.** What about the “glycan array binding signal (z-score)” value (Gal(b1-3)GlcNAc(b1-2)Man) of the same binder?
**A.** -0.886

**Q.** What about the “glycan array binding signal (z-score)” value [26] of the same binder?
**A.** 0.56
